What all share (assay): co-IP
Test [1] deals with T1, HA-tagged ATG2A wild type (human), Q2TAZ0.
T1 chain: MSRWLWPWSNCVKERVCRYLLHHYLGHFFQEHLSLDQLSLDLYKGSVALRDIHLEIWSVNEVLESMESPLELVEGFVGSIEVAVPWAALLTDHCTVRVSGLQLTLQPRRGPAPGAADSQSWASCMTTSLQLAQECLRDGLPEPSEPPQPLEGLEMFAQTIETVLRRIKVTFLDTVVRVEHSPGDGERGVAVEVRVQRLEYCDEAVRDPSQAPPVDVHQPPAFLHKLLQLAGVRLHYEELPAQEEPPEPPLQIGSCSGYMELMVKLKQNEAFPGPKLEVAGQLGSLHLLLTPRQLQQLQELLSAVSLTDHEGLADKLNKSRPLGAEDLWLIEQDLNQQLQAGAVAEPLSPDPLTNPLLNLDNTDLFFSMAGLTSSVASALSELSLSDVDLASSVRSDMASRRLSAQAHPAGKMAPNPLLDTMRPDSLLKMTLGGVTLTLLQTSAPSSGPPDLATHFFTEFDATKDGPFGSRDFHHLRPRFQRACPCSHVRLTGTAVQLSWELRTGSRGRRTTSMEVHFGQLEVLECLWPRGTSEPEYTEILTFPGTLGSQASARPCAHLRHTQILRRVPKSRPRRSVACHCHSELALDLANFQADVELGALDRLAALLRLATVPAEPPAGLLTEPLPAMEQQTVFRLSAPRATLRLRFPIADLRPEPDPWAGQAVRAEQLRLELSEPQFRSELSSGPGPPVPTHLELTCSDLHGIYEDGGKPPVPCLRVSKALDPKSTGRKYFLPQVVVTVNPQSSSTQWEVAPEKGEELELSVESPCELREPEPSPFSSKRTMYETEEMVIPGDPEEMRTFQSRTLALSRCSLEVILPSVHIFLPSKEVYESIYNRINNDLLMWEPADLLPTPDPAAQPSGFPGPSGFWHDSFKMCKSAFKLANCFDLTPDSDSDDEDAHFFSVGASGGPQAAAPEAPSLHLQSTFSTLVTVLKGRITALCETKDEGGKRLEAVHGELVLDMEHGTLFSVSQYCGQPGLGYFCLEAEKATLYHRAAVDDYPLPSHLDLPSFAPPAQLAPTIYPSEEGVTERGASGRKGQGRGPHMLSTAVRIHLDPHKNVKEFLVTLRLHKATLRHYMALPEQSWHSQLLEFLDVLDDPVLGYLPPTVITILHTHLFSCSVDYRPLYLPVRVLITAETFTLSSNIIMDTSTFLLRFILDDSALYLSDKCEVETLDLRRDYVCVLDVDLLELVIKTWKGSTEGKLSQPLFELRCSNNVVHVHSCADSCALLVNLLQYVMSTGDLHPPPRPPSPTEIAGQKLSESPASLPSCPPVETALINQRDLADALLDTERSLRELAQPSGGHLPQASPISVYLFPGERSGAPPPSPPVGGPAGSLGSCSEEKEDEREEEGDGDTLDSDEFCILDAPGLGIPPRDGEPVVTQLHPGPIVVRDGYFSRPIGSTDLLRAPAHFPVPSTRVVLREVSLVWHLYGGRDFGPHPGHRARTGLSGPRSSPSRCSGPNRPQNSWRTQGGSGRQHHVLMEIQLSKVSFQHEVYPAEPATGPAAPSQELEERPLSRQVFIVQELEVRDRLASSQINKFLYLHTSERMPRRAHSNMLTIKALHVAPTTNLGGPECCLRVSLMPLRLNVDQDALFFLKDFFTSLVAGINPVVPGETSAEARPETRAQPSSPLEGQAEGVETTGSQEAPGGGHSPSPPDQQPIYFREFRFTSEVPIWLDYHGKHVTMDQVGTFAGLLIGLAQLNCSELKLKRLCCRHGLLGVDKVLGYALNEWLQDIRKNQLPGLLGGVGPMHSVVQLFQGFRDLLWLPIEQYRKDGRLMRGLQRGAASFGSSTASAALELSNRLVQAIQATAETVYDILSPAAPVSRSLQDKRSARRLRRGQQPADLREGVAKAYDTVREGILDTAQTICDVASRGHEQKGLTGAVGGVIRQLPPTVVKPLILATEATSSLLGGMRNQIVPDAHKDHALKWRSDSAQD
As to conditions: remark: other sources report otherwise.

For test [2], the target named is HA-tagged ATG2A wild type (human) (UniProt Q2TAZ0).
For test [3], the target named is HA-tagged ATG2A-mYFS (YFS/AAA) (human) (UniProt Q2TAZ0).
Test [4] has as its target HA-tagged ATG2A-mLIR (FCIL/AAAA) (human) (UniProt Q2TAZ0).
Test [5] addresses Endogenous GFP-tagged ATG2A (CRISPR/Cas9 knock-in) (human) (UniProt Q2TAZ0).

No constants are given. Whether binding was seen depends on the method and setting. Binding seen in cells or lysates may run through a third protein. Some results given as binding are weak or reduced against the parent protein; the word gives no strength. For some assays here: Where a sequence is shown, tags or fusion partners need not be part of it.

B1: GFP-tagged GABARAP (U2OS ATG2A/B DKO cells), O95166 1-117 (protein)
chain: MKFVYKEEHPFEKRRSEGEKIRKKYPDRVPVIVEKAPKARIGDLDKKKYLVPSDLTVGQFYFLIRKRIHLRAEDALFFFVNNVIPPTSATMGQLYQEHHEEDFFLYIAYSDESVYGL
For B1, the binding entry in test [1] was “binds”.

B2: WIPI4 (WDR45), endogenous (protein, UniProt Q9Y484 1-360)
chain: MTQQPLRGVTSLRFNQDQSCFCCAMETGVRIYNVEPLMEKGHLDHEQVGSMGLVEMLHRSNLLALVGGGSSPKFSEISVLIWDDAREGKDSKEKLVLEFTFTKPVLSVRMRHDKIVIVLKNRIYVYSFPDNPRKLFEFDTRDNPKGLCDLCPSLEKQLLVFPGHKCGSLQLVDLASTKPGTSSAPFTINAHQSDIACVSLNQPGTVVASASQKGTLIRLFDTQSKEKLVELRRGTDPATLYCINFSHDSSFLCASSDKGTVHIFALKDTRLNRRSALARVGKVGPMIGQYVDSQWSLASFTVPAESACICAFGRNTSKNVNSVIAICVDGTFHKYVFTPDGNCNREAFDVYLDICDDDDF
Turning to B2, the binding entry is recorded as “binds” in test [2], “no binding” in test [3], “binds” in test [4] and “binds” in test [5].

The values above are taken from publication doi:10.1101/624627.
